Test results published in patent US20060241172A1, “Benzodioxane and benzodioxolane derivatives and uses thereof” (Wyeth, priority 2005, published 2006).
The match of structure and compound is tentative.

The chains behind the UniProt entries cited, without tags or fusion partners. Residues count along the entry.
UniProt P28335, 33-458 limits assumed: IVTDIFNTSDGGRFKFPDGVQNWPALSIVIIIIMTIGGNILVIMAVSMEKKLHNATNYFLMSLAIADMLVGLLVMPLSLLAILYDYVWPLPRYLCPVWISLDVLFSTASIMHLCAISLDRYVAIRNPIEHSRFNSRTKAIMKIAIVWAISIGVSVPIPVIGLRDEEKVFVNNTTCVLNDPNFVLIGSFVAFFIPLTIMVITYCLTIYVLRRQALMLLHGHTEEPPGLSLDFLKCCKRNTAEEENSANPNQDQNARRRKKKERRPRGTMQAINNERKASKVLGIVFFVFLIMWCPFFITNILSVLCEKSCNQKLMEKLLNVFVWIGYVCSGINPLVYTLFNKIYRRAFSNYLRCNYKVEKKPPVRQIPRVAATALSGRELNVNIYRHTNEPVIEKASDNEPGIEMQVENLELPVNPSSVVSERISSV

Key:
[1] = biological target: human 5-hydroxytryptamine-2C (h5-HT2C) receptor (Homo sapiens, UniProt P28335); experiment: 5-HT2C binding: [125I]DOI displacement in membranes of transfected CHO cells; conditions: read-out: 5-HT2C Binding Ki avg; tested form: fumarate
human 5-HT2C receptor = human 5-HT2C receptor (Homo sapiens, UniProt P28335); experiment: 5-HT2C receptor-stimulated calcium mobilization (FLIPR) in CHO cells; assay type: cell-based; conditions: tested form: fumarate; for 5-HT2C Function EMax (%): percentage of the response to a maximally effective concentration of 5-HT; for EC50: read-out: 5-HT2C Function EC50

Row | Structure (SMILES) | Ki [1] [nM] | 5-HT2C Function EMax (%) (human 5-HT2C receptor) | EC50 (human 5-HT2C receptor) [nM]
1 | CCCNCC1COc2cccc(-c3ccccc3Cl)c2O1 (centres unmarked) | 50 to 200 | 20 | > 500
2 | CNCC1COc2cccc(-c3ccc(Cl)cc3Cl)c2O1 (centres unmarked) | – | 40 | 100 to 500
3 | CCNCC1COc2cccc(-c3ccccc3Cl)c2O1 (centres unmarked) | 50 to 200 | 30 | 100 to 500
